In patent US20130045962A1, “PEPTIDE DEFORMYLASE INHIBITORS” (priority 2007, published 2013):
Some results were stated once for a whole list of compounds, not compound by compound.

Sequences of proteins named here, by UniProt entry; tags and fusion partners are left off. A change or cut given only in a name is not applied to a line headed by its entry.
UniProt P44786: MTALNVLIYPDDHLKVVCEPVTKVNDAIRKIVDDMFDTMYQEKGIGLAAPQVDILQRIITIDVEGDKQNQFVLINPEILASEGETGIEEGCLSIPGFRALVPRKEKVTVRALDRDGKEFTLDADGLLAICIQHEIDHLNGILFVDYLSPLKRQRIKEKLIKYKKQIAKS

Target: Haemophilus influenzae PDF (Haemophilus influenzae, UniProt P44786)
Assay: PDF IC50 assay (FDH-coupled), H. influenzae PDF
Assay type: biochemical
Conditions: read-out: IC50, inhibition of H. influenzae PDF activity

| SMILES | IC50 |
| --- | --- |
| Cc1nc(NNC(=O)[C@H](CC2CCCC2)CN(O)C=O)c(F)c(N2CCC[C@H]2C#N)n1 [Example 252, [(2R)-3-(2-{6-[(2S)-2-Cyano-1-pyrrolidinyl]-5-fluoro-2-methyl-4-pyrimidinyl}hydrazino)-2-(cyclopentylmethyl)-3-oxopropyl]hydroxyformamide] | ≤ 0.1 µM |
| CCN(C)C[C@@H]1CCCN1c1nc(C)nc(NNC(=O)[C@H](CC2CCCC2)CN(O)C=O)c1F [Example 253, ((2R)-2-(Cyclopentylmethyl)-3-{2-[6-((2S)-2-{[ethyl(methyl)amino]methyl}-1-pyrrolidinyl)-5-fluoro-2-methyl-4-pyrimidinyl]hydrazino}-3-oxopropyl)hydroxyformamide] | ≤ 0.1 µM |
| CCN(CC)C[C@@H]1CCCN1c1nc(C)nc(NNC(=O)[C@H](CC2CCCC2)CN(O)C=O)c1F [Example 254, {(2R)-2-(Cyclopentylmethyl)-3-[2-(6-{(2S)-2-[(diethylamino)methyl]-1-pyrrolidinyl}-5-fluoro-2-methyl-4-pyrimidinyl)hydrazino]-3-oxopropyl}hydroxyformamide] | ≤ 0.1 µM |
| CCN(C)C[C@@H]1CCCN1c1nc(Cl)nc(NNC(=O)[C@H](CC2CCCC2)CN(O)C=O)c1F [Example 255, [(2R)-3-{2-[2-Chloro-6-((2S)-2-{[ethyl(methyl)amino]methyl}-1-pyrrolidinyl)-5-fluoro-4-pyrimidinyl]hydrazino}-2-(cyclopentylmethyl)-3-oxopropyl]hydroxyformamide] | ≤ 0.1 µM |
| CCN(CC)C[C@@H]1CCCN1c1nc(Cl)nc(NNC(=O)[C@H](CC2CCCC2)CN(O)C=O)c1F [Example 256, [(2R)-3-[2-(2-Chloro-6-{(2S)-2-[(diethylamino)methyl]-1-pyrrolidinyl}-5-fluoro-4-pyrimidinyl)hydrazino]-2-(cyclopentylmethyl)-3-oxopropyl]hydroxyformamide] | ≤ 0.1 µM |
| N#C[C@@H]1CCCN1c1nc(Cl)nc(NNC(=O)[C@H](CC2CCCC2)CN(O)C=O)c1F [Example 257, [(2R)-3-(2-{2-Chloro-6-[(2S)-2-cyano-1-pyrrolidinyl]-5-fluoro-4-pyrimidinyl}hydrazino)-2-(cyclopentylmethyl)-3-oxopropyl]hydroxyformamide] | ≤ 0.1 µM |
| Cc1nc(NNC(=O)[C@H](CC2CCCC2)CN(O)C=O)c(F)c(N2CCCC[C@H]2CO)n1 [Example 258, [(2R)-2-(Cyclopentylmethyl)-3-(2-{5-fluoro-6-[(2S)-2-(hydroxymethyl)-1-piperidinyl]-2-methyl-4-pyrimidinyl}hydrazino)-3-oxopropyl]hydroxyformamide] | ≤ 0.1 µM |
| CCN1CCCN1c1nc(Cl)nc(NNC(=O)[C@H](CC2CCCC2)CN(O)C=O)c1F [Example 259, [(2R)-3-{2-[2-Chloro-5-fluoro-6-(2-ethyl-1-pyrazolidinyl)-4-pyrimidinyl]hydrazino}-2-(cyclopentylmethyl)-3-oxopropyl]hydroxyformamide] | ≤ 0.1 µM |
| CC[C@@H]1CN(c2nc(Cl)nc(NNC(=O)[C@H](CC3CCCC3)CN(O)C=O)c2F)[C@H](C)CN1C [Example 261, N-[(2R)-3-(2-{2-Chloro-6-[(2R,5R)-5-ethyl-2,4-dimethyl-1-piperazinyl]-5-fluoro-4-pyrimidinyl}hydrazino)-2-(cyclopentylmethyl)-3-oxopropyl]-N-hydroxyformamide] | ≤ 0.1 µM |
| CC[C@@H]1CN(c2nc(C)nc(NNC(=O)[C@H](CC3CCCC3)CN(O)C=O)c2F)[C@H](C)CN1C [Example 262, N-[(2R)-2-(Cyclopentylmethyl)-3-(2-{6-[(2R,5R)-5-ethyl-2,4-dimethyl-1-piperazinyl]-5-fluoro-2-methyl-4-pyrimidinyl}hydrazino)-3-oxopropyl]-N-hydroxyformamide] | ≤ 0.1 µM |
| Cc1nc(NNC(=O)[C@H](CC2CCCC2)CN(O)C=O)c(F)c(N2CC(C)C2)n1 [Example 263, ((2R)-2-(Cyclopentylmethyl)-3-{2-[5-fluoro-2-methyl-6-(3-methyl-1-azetidinyl)-4-pyrimidinyl]hydrazino}-3-oxopropyl)hydroxyformamide] | ≤ 0.1 µM |
